Article PMC12317982
Results are given in words; binding and its absence hold for the method and conditions named. In cells and extracts the contact can be indirect. Some results given as binding are weak or reduced against the parent protein; the word gives no strength. For part of these data: Where a sequence is shown, tags or fusion partners need not be part of it.

By UniProt entry, the sequences of proteins in these tests, tags left out.
UniProt Q99720: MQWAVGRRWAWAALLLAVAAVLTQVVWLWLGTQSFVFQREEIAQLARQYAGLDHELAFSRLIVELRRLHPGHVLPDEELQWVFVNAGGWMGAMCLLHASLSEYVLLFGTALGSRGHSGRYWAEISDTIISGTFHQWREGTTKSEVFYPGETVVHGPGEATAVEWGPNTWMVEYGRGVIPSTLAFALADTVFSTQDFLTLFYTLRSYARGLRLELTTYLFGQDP
UniProt Q01650: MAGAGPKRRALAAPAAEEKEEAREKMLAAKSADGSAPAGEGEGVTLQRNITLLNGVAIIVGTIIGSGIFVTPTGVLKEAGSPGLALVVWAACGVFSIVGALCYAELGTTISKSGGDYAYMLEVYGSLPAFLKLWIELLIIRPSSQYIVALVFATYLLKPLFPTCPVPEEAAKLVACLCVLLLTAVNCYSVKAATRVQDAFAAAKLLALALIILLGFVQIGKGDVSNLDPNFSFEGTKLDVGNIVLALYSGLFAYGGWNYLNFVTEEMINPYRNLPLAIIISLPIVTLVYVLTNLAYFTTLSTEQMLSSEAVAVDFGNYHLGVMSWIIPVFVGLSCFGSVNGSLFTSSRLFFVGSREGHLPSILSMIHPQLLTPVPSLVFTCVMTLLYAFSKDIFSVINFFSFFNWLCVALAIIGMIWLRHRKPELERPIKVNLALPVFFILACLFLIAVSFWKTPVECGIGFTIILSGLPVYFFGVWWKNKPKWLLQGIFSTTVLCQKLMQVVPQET

How the values were obtained:
EMC1-FLAG (human) [1] = molecular target: T1, EMC1-FLAG (human) (UniProt Q8N766); experiment: co-IP; IP against FLAG (EMC1), immunoblot against Strep (clients), normalised to EMC1 wt
T1 sequence: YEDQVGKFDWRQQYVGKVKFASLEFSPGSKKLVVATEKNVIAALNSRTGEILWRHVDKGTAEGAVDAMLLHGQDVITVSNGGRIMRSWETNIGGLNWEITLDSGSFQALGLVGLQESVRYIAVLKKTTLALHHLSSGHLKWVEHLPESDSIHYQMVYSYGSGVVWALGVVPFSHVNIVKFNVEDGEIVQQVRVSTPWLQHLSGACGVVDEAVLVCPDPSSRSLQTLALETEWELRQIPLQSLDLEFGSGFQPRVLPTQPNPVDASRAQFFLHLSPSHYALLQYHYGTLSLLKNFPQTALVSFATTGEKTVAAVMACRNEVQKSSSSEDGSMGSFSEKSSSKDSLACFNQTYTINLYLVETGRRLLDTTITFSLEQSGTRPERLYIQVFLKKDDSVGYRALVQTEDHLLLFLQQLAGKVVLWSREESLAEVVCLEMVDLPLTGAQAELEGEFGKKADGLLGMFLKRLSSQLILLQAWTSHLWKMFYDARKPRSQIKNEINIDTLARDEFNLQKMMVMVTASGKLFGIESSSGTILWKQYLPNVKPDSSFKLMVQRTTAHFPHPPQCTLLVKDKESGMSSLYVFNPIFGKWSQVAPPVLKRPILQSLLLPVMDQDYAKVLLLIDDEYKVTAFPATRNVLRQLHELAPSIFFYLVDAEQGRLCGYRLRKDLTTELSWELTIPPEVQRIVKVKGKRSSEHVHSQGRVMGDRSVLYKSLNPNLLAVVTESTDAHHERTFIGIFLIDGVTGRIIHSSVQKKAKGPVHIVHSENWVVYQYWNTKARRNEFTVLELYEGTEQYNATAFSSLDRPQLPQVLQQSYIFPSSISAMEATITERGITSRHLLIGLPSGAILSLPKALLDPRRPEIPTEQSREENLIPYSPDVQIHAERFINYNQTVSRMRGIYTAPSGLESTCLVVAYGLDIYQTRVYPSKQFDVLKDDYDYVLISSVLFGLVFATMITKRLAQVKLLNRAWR

EMC1-FLAG (human) [2] = molecular target: T1, EMC1-FLAG (human); experiment: co-IP; sequential co-IP: Strep (SLC3A2) then FLAG (EMC1), or the reverse order; native elution with desthiobiotin or FLAG peptide between the steps
[3] = molecular target: the fraction of SLC3A2 bound to EMC1 (EMC1-bound SLC3A2, isolated by sequential co-IP) (UniProt P08195); experiment: as above
SLC3A2, Strep-tagged = SLC3A2, Strep-tagged (UniProt P08195); experiment: as above

binding (EMC1-FLAG (human) [1])	binding (EMC1-FLAG (human) [2])	binding [3]	binding (SLC3A2, Strep-tagged)	Substance
binds				SIGMAR1, Strep-tagged (from UniProt Q99720 1-223)
binds	binds			SLC3A2, Strep-tagged (from UniProt P08195 1-529)
	no binding	no binding	binds	SLC7A5, endogenous (from UniProt Q01650 1-507)
